According to US20230414628A1, “METHODS FOR TREATING DISEASES MEDIATED BY GLUTATHIONE PEROXIDASE 4” (priority 2022, published 2023):

Test system: RAG01 (derived from fibroblasts of a patient diagnosed with SSMD) fibroblasts
Assay: CellTiter-Glo concentration response in RAG01 fibroblasts
Format: cell-based
Conditions: Homo sapiens, Fibroblast, 72 h
Procedure: Compounds described herein were tested in three cell lines, RAG01 (derived from fibroblasts of a patient diagnosed with SSMD) fibroblasts, RAG02 (derived from fibroblasts of the patient's parent), and GM09503 (from supplier Corriell) (derived from a healthy donor) to each generate 10-point concentration response curves (CRC). The three cell lines were each thawed seven (7) days prior to seeding. The RAG01 cells were thawed in a medium supplemented with a-tocopherol. Cells were passaged four (4) days prior to the seeding. The α-tocopherol was removed from the RAG01 cells. Cells were then seeded at 900 cells per well in 384-well plates. Two replicates were prepared for two independent (replicate) experiments. All plates were then incubated with compounds described herein for 72 hours, prior to CellTiter-Glo assay. […] The assay was run using the CellTiter-Glo (Promega) following manufacturer's guidelines and luminescent spectrophotometric reading on PHERAstar FSX (BMG Labtech). A 0.1% dimethylsulfoxide (DMSO) was used as a blank (vehicle control); and a 1 μM Ferrostatin-1 was used as a control (CTRL).
The raw data was analyzed using Activity Base® software. The compounds were evaluated by efficacy (percentage effect) normalized to the vehicle control. The percentage effect (PE) was determined from the signal increase in comparison to the vehicle control according to the formula below: […]

SMILES: Cc1cc2c(s1)Nc1ccccc1N=C2N1CCN(C)CC1 [compound 33, olanzapine]
- EC50: 1980 nM
